The exact form of at least one protein or probe is not confirmed. Where cells or extracts were used, other partners may take part. For part of these data: Negatives hold for the conditions tested.

Protein sequences, listed by entry. Tags and fused reporters are not part of them.
UniProt P03372, whole entry: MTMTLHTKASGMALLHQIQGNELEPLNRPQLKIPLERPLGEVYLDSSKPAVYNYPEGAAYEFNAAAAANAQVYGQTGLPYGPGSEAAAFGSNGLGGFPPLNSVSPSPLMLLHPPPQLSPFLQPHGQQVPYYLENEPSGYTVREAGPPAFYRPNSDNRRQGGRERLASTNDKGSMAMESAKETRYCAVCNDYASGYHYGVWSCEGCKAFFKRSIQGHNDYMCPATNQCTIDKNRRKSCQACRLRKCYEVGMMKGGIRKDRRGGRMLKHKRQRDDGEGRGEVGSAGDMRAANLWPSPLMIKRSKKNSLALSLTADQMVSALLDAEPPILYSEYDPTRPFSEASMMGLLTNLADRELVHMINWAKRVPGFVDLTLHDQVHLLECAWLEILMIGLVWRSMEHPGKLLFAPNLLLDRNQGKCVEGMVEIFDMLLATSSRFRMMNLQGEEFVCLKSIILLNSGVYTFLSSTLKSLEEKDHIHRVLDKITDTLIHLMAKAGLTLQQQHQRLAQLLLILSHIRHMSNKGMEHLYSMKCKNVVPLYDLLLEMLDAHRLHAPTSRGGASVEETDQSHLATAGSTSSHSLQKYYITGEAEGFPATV

The target of data set [1] is ERα (estrogen receptor alpha, endogenous in ZR75-1 nuclear extract) (UniProt P03372). Kind of data set: EMSA. Particulars: 10 µg nuclear extract, 1 nmol oligonucleotide, 2.5% glycerol, 0.05% NP-40, 50 mM KCl, 5 mM MgCl2, 1 mM EDTA, 10 mM Tris pH 7.6, 50 ng poly(dI-dC), 30 min, protein in an extract, label: biotin 3' end. On the technique in general: In EMSA bound probe runs differently from free probe, usually more slowly.

For data set [2] the target is unchanged. Kind of data set: EMSA supershift. The following applies: 10 nM E2, ZR75-1 nuclear extract, empty vector, inhibited by 100-fold cold ERE; 10 µg nuclear extract, 1 nmol oligonucleotide, 2.5% glycerol, 0.05% NP-40, 50 mM KCl, 5 mM MgCl2, 1 mM EDTA, 10 mM Tris pH 7.6, 50 ng poly(dI-dC), 30 min; protein in an extract; label: biotin 3' end.

Turning to “AGCTCTTTGATCAGGTCACTGTGACCTGACTTT (double strand) [ERE]”, the binding result is given as “binds” in data set [1] (10 nM E2, ZR75-1 nuclear extract with FLAG-CTGF overexpressed, binding not affected) and “binds” in data set [2].
In the case of “AGCTCTTTGATCAGTACACTGTGACCTGACTTT (double strand) [EREM (mutant ERE)]”, the binding result in data set [1] (10 nM E2, ZR75-1 nuclear extract) is listed as “no binding”.

The values are drawn from paper PMC3101213.
